The target in the experiment is L1-CAM recombinant protein (His Tag), human (human) (UniProt P32004). Nature of the experiment: SPR (Biacore 8K), L1-CAM immobilised on CM5 chip, antibody as analyte, blank-subtracted. (Surface plasmon resonance follows binding to a sensor surface in real time, without labels.)

The chains behind the UniProt entries cited, without tags or fusion partners. Residues count along the entry.
UniProt P32004, residues 20-1120: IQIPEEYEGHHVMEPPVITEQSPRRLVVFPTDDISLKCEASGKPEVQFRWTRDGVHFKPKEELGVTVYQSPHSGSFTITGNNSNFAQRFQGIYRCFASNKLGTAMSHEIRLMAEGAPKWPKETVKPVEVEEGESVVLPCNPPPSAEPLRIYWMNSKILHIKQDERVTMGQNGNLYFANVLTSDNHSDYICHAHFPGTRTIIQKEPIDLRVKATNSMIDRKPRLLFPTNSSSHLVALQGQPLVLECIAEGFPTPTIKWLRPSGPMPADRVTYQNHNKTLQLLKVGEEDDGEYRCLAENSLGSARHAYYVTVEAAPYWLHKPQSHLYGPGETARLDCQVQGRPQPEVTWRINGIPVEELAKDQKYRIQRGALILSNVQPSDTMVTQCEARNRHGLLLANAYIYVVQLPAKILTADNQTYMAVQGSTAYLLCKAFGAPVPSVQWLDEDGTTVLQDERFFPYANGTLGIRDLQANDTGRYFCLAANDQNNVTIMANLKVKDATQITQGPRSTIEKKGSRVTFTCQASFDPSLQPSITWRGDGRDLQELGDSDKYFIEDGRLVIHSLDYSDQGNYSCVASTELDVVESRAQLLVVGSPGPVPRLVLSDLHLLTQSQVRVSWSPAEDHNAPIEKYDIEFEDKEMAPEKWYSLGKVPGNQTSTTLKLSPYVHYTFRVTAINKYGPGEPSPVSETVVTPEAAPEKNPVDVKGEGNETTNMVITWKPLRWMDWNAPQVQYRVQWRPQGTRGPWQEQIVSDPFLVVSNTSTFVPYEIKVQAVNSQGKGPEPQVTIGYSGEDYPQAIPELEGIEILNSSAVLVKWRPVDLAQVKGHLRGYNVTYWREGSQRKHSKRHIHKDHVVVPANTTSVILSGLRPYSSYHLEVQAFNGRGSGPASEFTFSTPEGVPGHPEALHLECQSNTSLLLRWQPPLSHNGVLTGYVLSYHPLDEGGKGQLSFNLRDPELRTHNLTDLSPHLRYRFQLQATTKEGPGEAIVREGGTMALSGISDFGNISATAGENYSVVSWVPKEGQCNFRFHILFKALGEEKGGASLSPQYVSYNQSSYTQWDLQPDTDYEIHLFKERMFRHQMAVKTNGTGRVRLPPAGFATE

Results are given in words; binding and its absence hold for the method and conditions named. Some entries that bind do so weakly or less than the wild type.

B1: CE7-variant26 (antibody, V domains shown)
VH: QVQLVQSGAEVKKPGASVKVSCKASGYTFTGYWMHWVRQAPGQGLEWMGEINPSNGRTNYNEKFQGRVTLTVDKSISTAYMELSRLRSDDTAVYYCARDYYGTSYNFDYWGQGTLVTVSS
VL: DIQMTQSPSSLSASVGDRVTITCRANEDINNRLAWYQQKPGKAPKLLISGATNLVTGVPSRFSGSGSGKDYTLTISSLQPEDFATYYCQQYWSTPFTFGQGTKLEIKR
In the case of B1, the binding entry is on record as “binds”.

B2: CE7-variant28 (antibody, V domains shown)
VH: QVQLVQSGAEVKKPGASVKVSCKASGYTFTGYWMHWVRQAPGQGLEWMGEINPSNGRTNYNEKFQGRVTLTVDKSISTAYMELSRLRSDDTAVYYCARDYYGTSYNFDYWGQGTLVTVSS
VL: DIQMTQSPSSLSASVGDRVTITCRASQGINNRLAWYQQKPGKAPKLLISGASNLVSGVPSRFSGSGSGKDYTLTISSLQPEDFATYYCQQYWSTPFTFGQGTKLEIKR
For the molecule B2, the binding entry is “binds”.

These data come from patent publication US20260055182A1.
